# According to PubChem BioAssay AID1259415 (National Center for Advancing Translational Sciences (NCATS), 2018):
# Where “and” joins values, the source holds several entries; their conditions need not be identical. Equal entries are not always repeated. In all, about 410,000 compounds went through this assay and about 18,000 (4.4%) were called active. The inconclusive results got no clear call from the source; some entries with a clear call stand among them for comparison. Rule as the data show it: active = activity change below about -60%; inconclusive = no clear call, values can overlap the other calls; inactive = above about -39%.
# Experiment: qHTS Assay for inhibitors of the human cytomegalovirus (HCMV)
# Conditions: HFF cells, HCMV-luciferase reporter, 72 h; at 57.5 µM; hits give low values
# Procedure, shortened: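 After 16 h attachment at 37C, HFF cells received test compound and HCMV-luciferase (1 PFU/cell); reporter luminescence read 72 h later, data normalized against buffer-only and known inhibitor Salinomycin.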
# % is scaled to controls: 0 for no effect and ±100 for the full control effect.
row,SMILES,"activity change, negative = inhibition"
1,Cc1cc(N)n(-c2ccc(S(=O)(=O)N3CCOCC3)cc2[N+](=O)[O-])n1,inconclusive: -50.8%
2,CCOc1cc(N2CCOCC2)c(OCC)cc1NC(=O)CSc1ncccn1,inconclusive: -56.2%
3,COCCCn1c(=N)c(C(N)=S)cc2c(=O)n3cccc(C)c3nc21,inconclusive: -49.3%
4,COc1ccc(C=C2SC(=S)N(CCCN3CCOCC3)C2=O)c(OC)c1,inconclusive: -41.4%
5,C=CCCN1[C@@H](Cc2ccccc2)COc2ccccc2S1(=O)=O,inactive: -18.8%
6,Cc1c(CCC(=O)O)c(=O)oc2c(C)c3occ(-c4ccc(Cl)cc4)c3cc12,inconclusive: -52.3%
7,O=C(NC(=S)Nc1cccc(C(F)(F)F)c1)c1ccc2nonc2c1,inconclusive: -48.1%
8,COc1ccc(SCCCn2c(=O)c3c(ncn3C)n(C)c2=O)cc1,inconclusive: -41.9%
9,COc1cc(OC)c(OC)cc1CNC(=O)c1ccc(COc2ccccc2)cc1,inconclusive: -40.1%
10,Cc1nn(-c2ccccc2)c(Cl)c1C(=O)N1CCN(c2ncnc3c2cnn3-c2ccccc2)CC1,active: -105%
11,CC1CCCC(NC(=O)C2CCC(CNc3c(N4CCCC4)c(=O)c3=O)CC2)C1C (centres undefined),inconclusive: -56.1%
12,O=C(CSCc1ccc(F)cc1)Nc1ccc(F)cc1,inactive: -16.4%
13,CSc1ccc(/C=N/Nc2nc(C)cc(C)n2)cc1,inconclusive: -43.5%
14,S=C(Nc1ccc(Br)cc1Cl)N1CCC2(CC1)OCCO2,inconclusive: -48.6%
15,O=C(CN(C(=O)CNC(=O)c1cccs1)c1ccccc1F)NC1CCCCC1,inconclusive: -41%
16,COc1cc(OC)cc(C(=O)N2CC(=O)Nc3ccccc32)c1,inconclusive: -50.8%
17,CC(Sc1ccccc1)C(=O)Nc1ccc(N2CCOCC2)cc1 (centres undefined),inactive: 11.3%
18,COc1cc(-c2nc3cnccn3c2NC(C)(C)CC(C)(C)C)ccc1O,inconclusive: -42.1%
19,CC(C)c1ccc(NC(=O)C2CCCCN2S(=O)(=O)c2ccccc2)cc1 (centres undefined),inconclusive: -44.6%
20,CCOC(=O)CNC(=O)CNC(=O)C(Cc1ccc(N(CCCl)CCCl)cc1)NC(C)=O (centres undefined),inconclusive: -58.4%
21,Cc1cc(C)c2c(=O)cc(C(=O)Nc3ccc(S(=O)(=O)Nc4nc(C)cc(C)n4)cc3)oc2c1,inactive: 24.8%

row,SMILES,"activity change, negative = inhibition"
1,CCCCC(=O)NC(=S)Nc1cccc(NC(=O)c2ccco2)c1,inconclusive: -40.6%
2,Cc1ccc(NC(=O)c2cc(C)n(-c3ccccc3)c2C)cc1,active: -93%
3,CCN(CC)CCCN=C1N[C@@H](c2cccc(C(F)(F)F)c2)C(C(=O)OC)=C(C)N1CC,inconclusive: -48.3%
4,COc1cccc(N2CCN(c3nc4ccc(C(=O)c5ccccc5)cc4n4c(C)nnc34)CC2)c1,inconclusive: 0%
5,COc1cccc(/C=N/NC(=O)CC(C)O)c1OC/C=C/c1ccccc1 (centres undefined),inconclusive: -41.9%
6,CC(C)c1nnc(NC(=O)C2CCCN2C(=O)Nc2ccccc2[N+](=O)[O-])s1 (centres undefined),inconclusive: -40.7%
7,COC(=O)Cc1nnn2c1[C@@H](C)[C@@H](c1ccccc1Br)OC[C@@H]2c1ccccc1,inconclusive: -46.1%
8,COc1ccc(CCn2c(=N)c(S(=O)(=O)c3ccc(Cl)cc3)cc3c(=O)n4ccccc4nc32)cc1,inconclusive: -46.7%
9,CCC1Nc2ncnc(N3CCN(c4ccccc4)CC3)c2N(Cc2ccccc2)C1=O (centres undefined),inactive: -18.9% and inactive: 11.7%
10,O=C(Nc1cc([N+](=O)[O-])ccc1F)c1ccc2c(c1)OCCO2,inactive: 7.09%
11,CC(=O)c1cccc(NC(=O)N2CCCc3ccccc32)c1,inconclusive: -49.3%
12,Cc1ccccc1NC(=O)c1nn(C)c2c1CS(=O)(=O)c1ccccc1-2,inconclusive: -50.5%
13,Cc1ccc(CNC(=O)CCCCn2c(=O)c3ccccc3n(Cc3ccc(Cl)cc3)c2=O)cc1,inactive: -5.28%
14,CC1CCCC(NC(=O)C2N(CCCN3CCCC3)C(=O)C3C(C(=O)Nc4ccc(Cl)cc4)C4C=CC32O4)C1C (centres undefined),inconclusive: -53.5%
15,COc1ccc(N(CC(=O)N2CCCCCC2)S(=O)(=O)c2ccccc2[N+](=O)[O-])c(OC)c1,inconclusive: -44%
16,OC(CNCCNc1ncccc1C(F)(F)F)Cn1ccc2ccccc21 (centres undefined),inactive: -3.73%
17,CSc1ccc(S(=O)(=O)NC2CCCCCC2)cc1,inconclusive: -59%
18,NC(=S)n1[nH]c(-c2ccc([N+](=O)[O-])cc2)c(N=Nc2cccc(Cl)c2)c1=O,active: -101%
19,Cc1ccnc(NC(c2ccccc2F)c2ccc3cccnc3c2O)c1 (centres undefined),active: -76.8%
20,CC(=O)c1cccc(NC(=O)CCCCCn2nnc3ccccc3c2=O)c1,inactive: 14%
21,CN(CCOc1ccc(Cl)cc1)C(=O)c1ccccc1SCC(=O)N1CCCC1,inconclusive: -56%

row,SMILES,"activity change, negative = inhibition"
1,Cc1ccc(N2C(=O)C3C4C=CC(CNC(=S)Nc5cccc(Cl)c5)(O4)C3C2=O)cc1 (centres undefined),inconclusive: -48.4%
2,CCOC(=O)C1(Cc2ccc(OC)cc2)CCN(C(=O)CCn2cccn2)CC1,inactive: 13%
3,Clc1cccc(C2CCN(Cc3nc(COc4ccccc4)no3)C2)c1 (centres undefined),inactive: -4.56%
4,C/C(CC(=O)Nc1cc(Cl)ccc1C)=N\NC(N)=O,inconclusive: -45.3%
5,COc1ccc(S(=O)(=O)N/N=C\c2ccc3c(c2)OCO3)c(OC)c1,inactive: 18%
6,CCN(CC)C(=O)CC(c1ccc(N(C)C)cc1)c1c(OC)cc(OC)c2c(-c3ccccc3)cc(=O)oc12 (centres undefined),inconclusive: -47.8%
7,COc1ccc(OC)c(-c2nc(C(=O)NCC3CCCO3)cc3c2[nH]c2ccccc23)c1 (centres undefined),inactive: 23%
8,CC1(C)CC2(CCO1)C(Nc1ccccc1)=NC(=S)N2c1ccccc1 (centres undefined),inconclusive: -55.8%
9,Cc1n[nH]c(C)c1CCc1nc2c3ccccc3nc(SCC(=O)Nc3ccccc3F)n2n1,active: -72.7%
10,C=CCn1c(O)c(N=NC(=O)CNC(=O)Cc2ccccc2)c2ccccc21,inconclusive: -41.2%
11,Oc1ccc2ccccc2c1CNc1ccc(Br)cn1,inactive: 45.8%
12,CCOc1ccc(NC(=O)CN2C(=O)COc3ccc(S(=O)(=O)Nc4ccccc4)cc32)cc1,inactive: 11%
13,Cc1ccc(Cl)cc1NC(=O)Cn1nc2c(cc1=O)CC(C)CC2 (centres undefined),inactive: -32.2%
14,Cc1cccc(C)c1NC(=O)CNCC(=O)N(C)C,inconclusive: -40.6%
15,COc1ccc(CNc2nc3c(c(=O)n(Cc4ccc(Cl)cc4)c(=O)n3C)n2C)cc1,inconclusive: -58.9%
16,O=C(C(=O)N1CCN(C(=O)OCc2ccccc2)CC1)c1cccnc1,inactive: -4.96%
17,C=CCC[C@@H](Cc1ccc(F)cc1)C(=O)OC[C@H](C)NC(=O)[C@H](CC=C)CC(=O)N(CCO)Cc1ccccc1,inconclusive: -48.8%
18,COc1ccccc1CNC(=O)C1CCN(Cc2nc(-c3ccc(OC)c(OC)c3)oc2C)CC1,inactive: 2.62%
19,O=C1C2C(C(=O)N1/N=C/c1cccc([N+](=O)[O-])c1)C1C=CC2C12CC2 (centres undefined),inactive: -28.9%
20,c1ccc(-n2cnc3cc(NCc4ccco4)ccc32)cc1,active: -86.3%
21,CCn1c(SCc2ccc(C(=O)Nc3cc(C)cc(C)c3)cc2)nnc1-c1ccncc1,active: -61.5%

# Some of the entries so far, tab-delimited.
row	SMILES	activity change, negative = inhibition
13	CSc1ccc(/C=N/Nc2nc(C)cc(C)n2)cc1	inconclusive: -43.5%
14	S=C(Nc1ccc(Br)cc1Cl)N1CCC2(CC1)OCCO2	inconclusive: -48.6%
15	O=C(CN(C(=O)CNC(=O)c1cccs1)c1ccccc1F)NC1CCCCC1	inconclusive: -41%
16	COc1cc(OC)cc(C(=O)N2CC(=O)Nc3ccccc32)c1	inconclusive: -50.8%
17	CC(Sc1ccccc1)C(=O)Nc1ccc(N2CCOCC2)cc1 (centres undefined)	inactive: 11.3%
18	COc1cc(-c2nc3cnccn3c2NC(C)(C)CC(C)(C)C)ccc1O	inconclusive: -42.1%

# (list continues)

row,SMILES,"activity change, negative = inhibition"
1,Cc1ccc(-n2cccn2)c(CN2CCCC(C(=O)c3sccc3C)C2)c1 (centres undefined),inconclusive: -43%
2,Cc1ccc(-c2noc(CN(C3CCCCC3)S(=O)(=O)c3ccc(C)cc3)n2)cc1,inconclusive: -40%
3,C=COCCNC(=S)Nc1cccc(Cl)c1,inconclusive: -48.1%
4,Cc1c(CCC(=O)O)c(=O)oc2cc3occ(-c4ccc(Br)cc4)c3cc12,active: -62.1%
5,COCCNC(=O)C1CCCN(C(=O)c2ccc3c(c2)C(C)(C)CCC3(C)C)CC1 (centres undefined),inactive: 23.6%
6,C[n+]1cccc(C2C(C#N)=C(N)Oc3c2ccc2ccccc32)c1 (centres undefined),inactive: -23.4%
7,CCCCCc1ccc(OCCC[n+]2ccccc2)c(CCCCC)c1,active: -98.6%
8,CCC(Oc1ccccc1F)C(=O)Nc1c(C(=O)c2ccccc2)oc2ccccc12 (centres undefined),inconclusive: -54.8%
9,O=C1NC(=Nc2ccccc2)S/C1=C\c1ccccc1,active: -85.8%
10,O=C(O)c1cc(-c2ccccc2)n(-c2ccccc2C(=O)O)n1,active: -99.9%
11,COc1cccc(N2CCN(C(=O)c3ccc(CSc4nc5ccncc5[nH]4)cc3)CC2)c1,active: -86.6%
12,Cc1ccc(NC(=O)Nc2cccnc2)cc1NC(=O)Nc1cccnc1,inconclusive: -54.6%
13,COc1cc(NC(=O)C2CCCC2)c(OC)cc1Cl,inconclusive: -42.5%
14,Clc1ccc(CNc2cnccn2)cc1,inconclusive: -49.2%
15,COc1ccc(NC(=O)CN(C)C(=O)CCCN2C(=O)c3cccc4cccc(c34)C2=O)cc1,inconclusive: -45.8%
16,Cc1c(NC(=O)c2nn3c(c2Br)NC(c2ccccc2)CC3C(F)(F)F)c(=O)n(-c2ccccc2)n1C (centres undefined),inconclusive: -47.9%
17,CC1(C2CC(=O)c3c(O)ccc(O)c3C2)OCCO1 (centres undefined),inconclusive: -52.6%
18,CN(Cc1ccccc1)c1nc(-c2ccc(F)cc2)cc(C(F)(F)F)n1,inactive: -31%
19,CCN(CC(=O)Nc1c(F)cccc1F)C(=O)CCCSc1nc2ccccc2[nH]1,inactive: 19.4%
20,Cc1nn(Cc2ccccc2Cl)c(C)c1NC(=O)c1noc2c1CCCCC2,inconclusive: -48.1%
21,CC(C)c1ccc(NC(=O)c2ccc(NS(C)(=O)=O)cc2)cc1,inactive: -5.22%
